For part of these data: A negative result means that nothing was seen under these conditions. For part of these data: Weaker means in comparison with the reference protein, sequence or condition of that experiment. For part of these data: Protein sequences can lack the tags named with them. For part of these data: Construct, isoform or probe ends are uncertain for at least one entry. For part of these data: At least one result comes from cells or an extract, where the contact may be indirect.
Experiments:
RARα/RXRγ (Mus musculus) = assay: activity in cells; conditions: protein in cells, protein details: pSG5 expression vectors, COS-1 cells
[1] = tested on: RARα-containing complex of MMQ nuclear extract (Rattus norvegicus); assay: EMSA; conditions: protein in an extract, protein details: endogenous, MMQ rat pituitary cells
RXRα(ΔAB) (Mus musculus) = RXRα(ΔAB) (Mus musculus) (UniProt P28700); assay: EMSA; conditions: binds poorly alone; purified recombinant protein; protein details: ΔAB truncation, bacterially expressed; label: 32P
RARα(ΔAB) (Mus musculus) = target: T1, RARα(ΔAB) (Mus musculus) (UniProt P11416); assay: EMSA; conditions: binds poorly alone; purified recombinant protein; protein details: ΔAB truncation, bacterially expressed; label: 32P
T1 sequence (looked up, limits assumed): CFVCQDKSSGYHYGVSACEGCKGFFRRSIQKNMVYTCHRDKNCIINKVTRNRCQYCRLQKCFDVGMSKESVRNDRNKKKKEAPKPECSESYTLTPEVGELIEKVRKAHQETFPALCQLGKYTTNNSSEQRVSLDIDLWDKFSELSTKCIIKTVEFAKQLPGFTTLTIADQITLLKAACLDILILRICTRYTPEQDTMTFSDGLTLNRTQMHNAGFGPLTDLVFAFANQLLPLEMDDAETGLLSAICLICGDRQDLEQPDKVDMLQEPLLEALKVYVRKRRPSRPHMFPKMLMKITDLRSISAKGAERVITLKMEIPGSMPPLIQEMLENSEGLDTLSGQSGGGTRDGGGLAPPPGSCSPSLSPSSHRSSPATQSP

Chains of the proteins cited; added tags and fusions are not shown. A change or cut given only in a name is not applied to a line headed by its entry. A line that says so, or that is headed by a name, gives the form on record, which may keep a tag or linker. Residues count along the entry.
UniProt P28700, 140-467, stated change not applied: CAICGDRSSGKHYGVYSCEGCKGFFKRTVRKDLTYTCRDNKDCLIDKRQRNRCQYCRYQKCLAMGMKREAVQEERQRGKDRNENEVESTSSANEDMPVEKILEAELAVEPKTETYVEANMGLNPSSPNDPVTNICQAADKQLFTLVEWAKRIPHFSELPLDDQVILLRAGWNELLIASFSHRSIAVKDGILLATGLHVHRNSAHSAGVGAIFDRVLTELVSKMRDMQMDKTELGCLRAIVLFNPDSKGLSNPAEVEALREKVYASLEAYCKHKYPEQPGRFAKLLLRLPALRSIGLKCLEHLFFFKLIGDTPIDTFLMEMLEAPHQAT
UniProt P28705: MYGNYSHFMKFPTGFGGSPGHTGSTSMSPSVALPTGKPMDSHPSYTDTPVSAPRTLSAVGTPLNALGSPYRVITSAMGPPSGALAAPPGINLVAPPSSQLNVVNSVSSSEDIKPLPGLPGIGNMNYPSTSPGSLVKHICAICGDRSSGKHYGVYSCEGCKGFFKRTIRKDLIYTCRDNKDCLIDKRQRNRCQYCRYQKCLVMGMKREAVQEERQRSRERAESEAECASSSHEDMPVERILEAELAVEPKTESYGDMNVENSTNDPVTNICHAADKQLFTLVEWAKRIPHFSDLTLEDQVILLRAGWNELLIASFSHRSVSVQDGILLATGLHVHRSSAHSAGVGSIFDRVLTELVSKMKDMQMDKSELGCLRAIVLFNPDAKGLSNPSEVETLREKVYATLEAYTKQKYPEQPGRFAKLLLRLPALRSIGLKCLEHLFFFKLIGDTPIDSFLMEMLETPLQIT
RARα/RXRγ (Mus musculus), one chain, as listed by the source: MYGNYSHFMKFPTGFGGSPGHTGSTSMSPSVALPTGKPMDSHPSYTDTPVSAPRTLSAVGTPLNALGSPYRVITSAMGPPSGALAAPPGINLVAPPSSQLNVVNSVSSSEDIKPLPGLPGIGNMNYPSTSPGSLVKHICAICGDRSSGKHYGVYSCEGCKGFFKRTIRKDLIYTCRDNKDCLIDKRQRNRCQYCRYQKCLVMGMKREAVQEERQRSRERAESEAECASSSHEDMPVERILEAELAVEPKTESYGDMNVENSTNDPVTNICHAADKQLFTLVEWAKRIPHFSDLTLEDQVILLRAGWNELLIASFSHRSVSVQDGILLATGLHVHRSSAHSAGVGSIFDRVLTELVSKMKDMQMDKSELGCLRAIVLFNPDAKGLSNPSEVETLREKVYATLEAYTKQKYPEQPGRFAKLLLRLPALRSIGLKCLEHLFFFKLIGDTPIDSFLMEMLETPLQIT

RARα (Mus musculus) = target: T2, RARα (Mus musculus) (UniProt P11416); assay: activity in cells; conditions: C1 CAT reporter, t-RA; protein in cells; protein details: pSG5 expression vector, COS-1 cells
T2 sequence (looked up, limits assumed): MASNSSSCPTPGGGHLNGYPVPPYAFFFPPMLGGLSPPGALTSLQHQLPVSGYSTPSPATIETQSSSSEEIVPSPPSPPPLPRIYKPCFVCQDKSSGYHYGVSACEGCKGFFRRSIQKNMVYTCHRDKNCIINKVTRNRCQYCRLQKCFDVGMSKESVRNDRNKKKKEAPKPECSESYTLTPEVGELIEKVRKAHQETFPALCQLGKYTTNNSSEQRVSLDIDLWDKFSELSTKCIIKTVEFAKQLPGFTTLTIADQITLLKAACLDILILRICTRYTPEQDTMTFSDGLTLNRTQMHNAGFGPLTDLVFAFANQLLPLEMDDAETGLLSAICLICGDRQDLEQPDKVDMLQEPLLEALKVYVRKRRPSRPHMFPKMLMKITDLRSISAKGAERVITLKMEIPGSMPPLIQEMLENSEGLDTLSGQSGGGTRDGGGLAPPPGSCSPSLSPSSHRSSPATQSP

RXRγ (Mus musculus) = RXRγ (Mus musculus) (UniProt P28705); assay: activity in cells; conditions: C1 CAT reporter, 9-cis-RA; protein in cells; protein details: pSG5 expression vector, COS-1 cells

## AGCTTCCTCGGTGCGAGGGGTACGCCGCG (double strand) [D2m1]
RARα/RXRγ (Mus musculus); C4 reporter, no detectable CAT activity with t-RA and 9-cis-RA, variant of RARE D2, only the site is given
  activity on this sequence: not active
[1]; no retarded complex, variant of RARE D2
  binding result: no binding

## AGCTTCCTCGTGGCCAGGGTGACCCCGCG (double strand) [RARE D2]
RXRα(ΔAB) (Mus musculus)
  binding result: binds more weakly
RARα(ΔAB) (Mus musculus)
  binding result: binds more weakly
[1]; supershifted by RARα monoclonal antibody, label: 32P
  binding result: binds

## GATCTGCTCTGCCCAAGTCTTCCTCTCAGAAAGCACAACAGCAGAACGAACTGCTGTGATTTTCAGACCTGAGGTCTGTACACCGACTCTGGATATCCTTCCGGAATCTATTTCTCCTTTAAAGACTTGATGTACCACATGTAGTGCTTCAGCTAGCCCTTGGCCCTGACTCCTCAAAGGAGGGGATCGACCCGCTGGTGTTGTGATTGCTAGACCAGAGTAGGTTTGGATGGGCAGAGTGTTACTTAAAAAGTATAGGATGACACCGGCGAGCAGTCCGGAGCACAGGCTATCCCCACTCAAAGCCAGAGATGGATTCTCGGTCTCAGCTCTCAAGGTTCCTTCCCCAGGCCCCACAGTGCAGAGATAGTTCTGGGGCCCTGGGTGGGTGGGGCCTCTGTACAAGGGGCGGGGTTCCCGGGCGCCTCGTGGCCAGGGTGACCCCGCCCCCTCCTCCTGCGCAGCGCTCTGATTCCGCGGAGCTGTCCAGCCTCAGTGCCGGAGCTGGTCGCCTCTTGTGCGCAGCGCCTCCTGCCCGCC (double strand) [D2R promoter (C1 reporter, -495 to +273)]
RARα (Mus musculus)
  activity on this sequence: 16 fold
RARα/RXRγ (Mus musculus); C1 CAT reporter, t-RA and 9-cis-RA
  activity on this sequence: 45 fold
RXRγ (Mus musculus)
  activity on this sequence: 9 fold

## GGGTAGGGTTCACCGAAAGTTCACTG (double strand) [RAREβ2]
[1]; 6 µg MMQ nuclear extract
  binding result: binds

— US6521814
